System: recombinant human full length HGF
Experiment: Sequencing of clones after MACS/FACS sorting of bacterial display X15 library
Conditions: after 1 MACS and 13 FACS cycles; for Frequency: number of sequenced bacteria clones carrying the sequence; for Percentage: share of sequenced clones

| Sequence | Frequency | Percentage [%] |
| --- | --- | --- |
| ALQQAWGWWDCYGWR [Clone 15] | 1 | 2.0 |
| AYMMRDLWEYNWTSG [Clone 7] | 2 | 4.1 |
| GTARLLWRPVVTYDC [Clone 12] | 1 | 2.0 |
| KGYGRYWWDCGDNFW [Clone 8] | 1 | 2.0 |
| MEVERRWPWWHANYW [Clone 6] | 3 | 6.1 |
| MGGGSWLYVGDPDCW [Clone 13] | 1 | 2.0 |
| MYNVRLNDWYWCGWD [Clone 16] | 1 | 2.0 |
| QRCGMVRFNDWQHPM [Clone 11] | 1 | 2.0 |
| RANWFCIEDSVYCGK [Clone 4] | 3 | 6.1 |
| RSSMWDCYYFDCCNW [Clone 14] | 1 | 2.0 |
| SARKLGWCPYWSSDC [Clone 5] | 3 | 6.1 |
| SPWWSVYETQSCAVR [Clone 17] | 1 | 2.0 |
| TLYEVDLREWCAGIVG [HGP-2] | 7 | 14.3 |
| TYFTWWELSPGCEEH [HGP-3] | 6 | 12.2 |
| YRWGMGGYEYWCNRG [Clone 10] | 1 | 2.0 |
| YWPGCQEWGNKWWGG [Clone 9] | 1 | 2.0 |
| YWYGWGSGWSGCDHA [Clone 18] | 1 | 2.0 |
